The list shows a part of the results.
How the values were obtained:
Assay in all cases: log2 fold change, soluble protein after heating vs DMSO (PISA); higher = thermal stabilisation; K562 cells, 10 uM, 30 min; active = over 0.2 and 3.5 SD of the protein, either way, in both replicates (recomputed)
sotrastaurin = compound: CN1CCN(c2nc(C3=C(c4c[nH]c5ccccc45)C(=O)NC3=O)c3ccccc3n2)CC1 [sotrastaurin]
In short: (§1)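 Values are thermal stability changes relative to control samples and are taken from duplicates. They are stated as log2 fold changes. Before quantification by TMTpro 16plex LC-MS/MS with equalised channel sums, K562 cells at 2×10^6 cells/mL were treated with 10 μM compound for 30 min, heated in aliquots for 3 min across 48°C-58°C, pooled, extracted in PBS with 0.5% NP-40 at 4°C, and centrifuged at 21,000xg for 90 min to give the soluble supernatant.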

By UniProt entry, the sequences of proteins in these tests, tags left out. Where a name states a change or a piece, a line headed by the entry shows the natural chain unless it says otherwise.
UniProt Q9NUX5: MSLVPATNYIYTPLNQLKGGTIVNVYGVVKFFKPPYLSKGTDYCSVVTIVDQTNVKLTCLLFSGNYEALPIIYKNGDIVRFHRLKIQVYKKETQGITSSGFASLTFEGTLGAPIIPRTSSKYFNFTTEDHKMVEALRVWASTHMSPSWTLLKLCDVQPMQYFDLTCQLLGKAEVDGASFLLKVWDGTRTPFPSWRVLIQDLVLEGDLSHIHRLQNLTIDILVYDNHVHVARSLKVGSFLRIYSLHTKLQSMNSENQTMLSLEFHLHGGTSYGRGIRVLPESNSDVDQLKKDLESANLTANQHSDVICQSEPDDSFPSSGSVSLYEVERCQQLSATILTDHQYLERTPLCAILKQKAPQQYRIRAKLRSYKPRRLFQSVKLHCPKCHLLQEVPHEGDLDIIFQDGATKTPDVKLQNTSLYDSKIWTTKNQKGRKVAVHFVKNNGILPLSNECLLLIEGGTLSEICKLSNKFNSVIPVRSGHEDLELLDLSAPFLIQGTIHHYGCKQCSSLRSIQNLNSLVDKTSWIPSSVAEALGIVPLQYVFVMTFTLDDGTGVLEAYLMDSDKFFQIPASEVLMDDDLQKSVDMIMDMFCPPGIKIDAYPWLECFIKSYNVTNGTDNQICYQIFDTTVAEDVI
UniProt Q9GZS1, whole entry, looked up: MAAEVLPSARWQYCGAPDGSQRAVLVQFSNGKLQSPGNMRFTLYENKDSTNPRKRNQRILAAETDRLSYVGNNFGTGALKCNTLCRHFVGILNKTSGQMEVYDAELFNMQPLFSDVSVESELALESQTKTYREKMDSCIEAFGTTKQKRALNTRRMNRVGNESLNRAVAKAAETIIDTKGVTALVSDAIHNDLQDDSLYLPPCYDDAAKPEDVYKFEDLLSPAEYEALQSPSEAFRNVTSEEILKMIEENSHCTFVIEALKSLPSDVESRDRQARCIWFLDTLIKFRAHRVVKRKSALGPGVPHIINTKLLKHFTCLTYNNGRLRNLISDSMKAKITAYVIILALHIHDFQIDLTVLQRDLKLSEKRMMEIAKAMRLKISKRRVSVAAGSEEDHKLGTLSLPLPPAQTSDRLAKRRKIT
UniProt O00469: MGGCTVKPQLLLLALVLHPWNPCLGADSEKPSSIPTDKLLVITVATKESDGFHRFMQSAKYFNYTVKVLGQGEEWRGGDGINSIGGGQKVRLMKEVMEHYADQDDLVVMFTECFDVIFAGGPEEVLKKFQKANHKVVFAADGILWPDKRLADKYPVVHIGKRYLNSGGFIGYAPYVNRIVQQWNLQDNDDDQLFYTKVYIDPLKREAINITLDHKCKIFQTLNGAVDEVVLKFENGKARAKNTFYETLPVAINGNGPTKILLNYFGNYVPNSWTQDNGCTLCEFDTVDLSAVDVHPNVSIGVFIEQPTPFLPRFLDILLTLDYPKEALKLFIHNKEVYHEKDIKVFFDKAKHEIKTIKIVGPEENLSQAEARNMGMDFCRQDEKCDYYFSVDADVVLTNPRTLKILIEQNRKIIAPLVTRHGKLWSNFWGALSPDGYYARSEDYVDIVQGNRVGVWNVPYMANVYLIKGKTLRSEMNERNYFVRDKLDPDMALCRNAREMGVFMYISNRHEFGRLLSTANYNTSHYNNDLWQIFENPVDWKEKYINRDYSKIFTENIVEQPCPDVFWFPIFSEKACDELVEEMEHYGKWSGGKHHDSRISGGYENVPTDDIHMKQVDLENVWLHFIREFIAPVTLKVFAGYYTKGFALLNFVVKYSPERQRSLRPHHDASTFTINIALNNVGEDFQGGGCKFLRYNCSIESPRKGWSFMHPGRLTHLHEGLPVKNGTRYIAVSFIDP
UniProt Q8NEY8: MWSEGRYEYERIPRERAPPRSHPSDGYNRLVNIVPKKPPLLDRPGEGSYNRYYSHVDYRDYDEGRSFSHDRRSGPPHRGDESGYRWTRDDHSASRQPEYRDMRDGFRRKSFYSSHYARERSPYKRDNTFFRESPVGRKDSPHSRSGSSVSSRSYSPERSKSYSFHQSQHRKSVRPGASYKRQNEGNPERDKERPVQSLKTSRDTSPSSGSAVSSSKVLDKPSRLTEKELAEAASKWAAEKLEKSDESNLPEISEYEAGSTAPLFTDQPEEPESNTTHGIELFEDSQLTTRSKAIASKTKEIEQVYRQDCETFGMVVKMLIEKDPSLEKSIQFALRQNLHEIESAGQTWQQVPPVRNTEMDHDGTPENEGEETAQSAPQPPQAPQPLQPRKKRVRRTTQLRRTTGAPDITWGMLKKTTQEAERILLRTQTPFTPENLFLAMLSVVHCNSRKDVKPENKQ
UniProt Q07864, whole entry, looked up: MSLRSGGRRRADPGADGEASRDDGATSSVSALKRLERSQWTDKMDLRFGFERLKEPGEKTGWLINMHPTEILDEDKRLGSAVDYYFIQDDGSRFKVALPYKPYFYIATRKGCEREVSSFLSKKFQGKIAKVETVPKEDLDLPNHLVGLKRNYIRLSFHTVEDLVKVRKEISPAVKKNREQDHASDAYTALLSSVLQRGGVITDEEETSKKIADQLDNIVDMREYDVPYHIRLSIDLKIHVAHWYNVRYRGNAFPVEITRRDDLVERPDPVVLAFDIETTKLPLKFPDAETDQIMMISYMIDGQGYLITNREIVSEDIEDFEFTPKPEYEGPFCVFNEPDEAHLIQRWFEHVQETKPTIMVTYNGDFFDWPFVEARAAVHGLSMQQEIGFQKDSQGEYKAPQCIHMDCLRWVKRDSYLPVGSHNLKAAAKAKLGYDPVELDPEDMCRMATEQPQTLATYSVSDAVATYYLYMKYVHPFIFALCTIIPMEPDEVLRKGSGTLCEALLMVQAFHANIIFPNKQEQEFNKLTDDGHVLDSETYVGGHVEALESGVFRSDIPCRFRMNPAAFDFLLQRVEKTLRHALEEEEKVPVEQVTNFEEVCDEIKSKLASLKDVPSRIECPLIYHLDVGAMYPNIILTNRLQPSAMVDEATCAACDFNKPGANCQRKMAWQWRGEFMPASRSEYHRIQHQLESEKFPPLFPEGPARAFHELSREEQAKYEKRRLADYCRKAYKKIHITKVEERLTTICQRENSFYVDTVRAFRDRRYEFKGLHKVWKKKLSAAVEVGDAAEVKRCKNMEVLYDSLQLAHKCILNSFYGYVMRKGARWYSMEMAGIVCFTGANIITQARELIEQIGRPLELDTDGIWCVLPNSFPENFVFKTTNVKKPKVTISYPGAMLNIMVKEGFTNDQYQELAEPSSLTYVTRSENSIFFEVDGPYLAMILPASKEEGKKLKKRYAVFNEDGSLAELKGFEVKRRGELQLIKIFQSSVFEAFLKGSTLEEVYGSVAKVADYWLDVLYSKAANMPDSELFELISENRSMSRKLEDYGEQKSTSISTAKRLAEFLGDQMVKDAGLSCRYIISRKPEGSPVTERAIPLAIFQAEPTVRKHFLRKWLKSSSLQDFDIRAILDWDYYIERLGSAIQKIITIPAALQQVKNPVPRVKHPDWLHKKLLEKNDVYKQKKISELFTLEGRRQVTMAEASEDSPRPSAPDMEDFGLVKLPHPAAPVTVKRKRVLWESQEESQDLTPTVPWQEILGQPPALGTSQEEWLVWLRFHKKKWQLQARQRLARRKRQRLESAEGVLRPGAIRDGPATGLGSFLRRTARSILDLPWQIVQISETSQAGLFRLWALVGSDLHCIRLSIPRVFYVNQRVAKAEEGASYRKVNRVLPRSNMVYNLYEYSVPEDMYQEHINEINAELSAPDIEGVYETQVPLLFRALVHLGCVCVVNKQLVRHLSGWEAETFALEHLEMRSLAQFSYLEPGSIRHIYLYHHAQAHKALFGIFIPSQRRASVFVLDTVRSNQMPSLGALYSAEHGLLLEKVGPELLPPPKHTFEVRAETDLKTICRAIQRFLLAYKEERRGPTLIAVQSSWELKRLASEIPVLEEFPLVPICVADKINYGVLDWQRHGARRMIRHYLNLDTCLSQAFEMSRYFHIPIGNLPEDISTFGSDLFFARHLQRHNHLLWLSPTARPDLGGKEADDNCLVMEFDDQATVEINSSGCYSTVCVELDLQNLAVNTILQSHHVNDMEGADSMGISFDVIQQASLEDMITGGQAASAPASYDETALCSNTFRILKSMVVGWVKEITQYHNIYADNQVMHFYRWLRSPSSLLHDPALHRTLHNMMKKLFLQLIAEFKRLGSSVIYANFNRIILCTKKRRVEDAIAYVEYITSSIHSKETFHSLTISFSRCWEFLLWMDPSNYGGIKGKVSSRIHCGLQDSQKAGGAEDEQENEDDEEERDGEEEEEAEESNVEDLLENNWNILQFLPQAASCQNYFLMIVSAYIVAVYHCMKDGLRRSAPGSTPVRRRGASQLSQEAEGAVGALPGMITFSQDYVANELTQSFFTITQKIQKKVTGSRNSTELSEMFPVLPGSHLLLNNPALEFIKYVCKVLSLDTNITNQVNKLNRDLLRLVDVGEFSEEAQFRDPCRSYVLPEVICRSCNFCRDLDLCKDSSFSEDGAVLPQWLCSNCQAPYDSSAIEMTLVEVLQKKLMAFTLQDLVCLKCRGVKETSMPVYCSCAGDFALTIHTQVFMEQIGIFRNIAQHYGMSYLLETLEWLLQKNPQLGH
UniProt Q9Y4D7: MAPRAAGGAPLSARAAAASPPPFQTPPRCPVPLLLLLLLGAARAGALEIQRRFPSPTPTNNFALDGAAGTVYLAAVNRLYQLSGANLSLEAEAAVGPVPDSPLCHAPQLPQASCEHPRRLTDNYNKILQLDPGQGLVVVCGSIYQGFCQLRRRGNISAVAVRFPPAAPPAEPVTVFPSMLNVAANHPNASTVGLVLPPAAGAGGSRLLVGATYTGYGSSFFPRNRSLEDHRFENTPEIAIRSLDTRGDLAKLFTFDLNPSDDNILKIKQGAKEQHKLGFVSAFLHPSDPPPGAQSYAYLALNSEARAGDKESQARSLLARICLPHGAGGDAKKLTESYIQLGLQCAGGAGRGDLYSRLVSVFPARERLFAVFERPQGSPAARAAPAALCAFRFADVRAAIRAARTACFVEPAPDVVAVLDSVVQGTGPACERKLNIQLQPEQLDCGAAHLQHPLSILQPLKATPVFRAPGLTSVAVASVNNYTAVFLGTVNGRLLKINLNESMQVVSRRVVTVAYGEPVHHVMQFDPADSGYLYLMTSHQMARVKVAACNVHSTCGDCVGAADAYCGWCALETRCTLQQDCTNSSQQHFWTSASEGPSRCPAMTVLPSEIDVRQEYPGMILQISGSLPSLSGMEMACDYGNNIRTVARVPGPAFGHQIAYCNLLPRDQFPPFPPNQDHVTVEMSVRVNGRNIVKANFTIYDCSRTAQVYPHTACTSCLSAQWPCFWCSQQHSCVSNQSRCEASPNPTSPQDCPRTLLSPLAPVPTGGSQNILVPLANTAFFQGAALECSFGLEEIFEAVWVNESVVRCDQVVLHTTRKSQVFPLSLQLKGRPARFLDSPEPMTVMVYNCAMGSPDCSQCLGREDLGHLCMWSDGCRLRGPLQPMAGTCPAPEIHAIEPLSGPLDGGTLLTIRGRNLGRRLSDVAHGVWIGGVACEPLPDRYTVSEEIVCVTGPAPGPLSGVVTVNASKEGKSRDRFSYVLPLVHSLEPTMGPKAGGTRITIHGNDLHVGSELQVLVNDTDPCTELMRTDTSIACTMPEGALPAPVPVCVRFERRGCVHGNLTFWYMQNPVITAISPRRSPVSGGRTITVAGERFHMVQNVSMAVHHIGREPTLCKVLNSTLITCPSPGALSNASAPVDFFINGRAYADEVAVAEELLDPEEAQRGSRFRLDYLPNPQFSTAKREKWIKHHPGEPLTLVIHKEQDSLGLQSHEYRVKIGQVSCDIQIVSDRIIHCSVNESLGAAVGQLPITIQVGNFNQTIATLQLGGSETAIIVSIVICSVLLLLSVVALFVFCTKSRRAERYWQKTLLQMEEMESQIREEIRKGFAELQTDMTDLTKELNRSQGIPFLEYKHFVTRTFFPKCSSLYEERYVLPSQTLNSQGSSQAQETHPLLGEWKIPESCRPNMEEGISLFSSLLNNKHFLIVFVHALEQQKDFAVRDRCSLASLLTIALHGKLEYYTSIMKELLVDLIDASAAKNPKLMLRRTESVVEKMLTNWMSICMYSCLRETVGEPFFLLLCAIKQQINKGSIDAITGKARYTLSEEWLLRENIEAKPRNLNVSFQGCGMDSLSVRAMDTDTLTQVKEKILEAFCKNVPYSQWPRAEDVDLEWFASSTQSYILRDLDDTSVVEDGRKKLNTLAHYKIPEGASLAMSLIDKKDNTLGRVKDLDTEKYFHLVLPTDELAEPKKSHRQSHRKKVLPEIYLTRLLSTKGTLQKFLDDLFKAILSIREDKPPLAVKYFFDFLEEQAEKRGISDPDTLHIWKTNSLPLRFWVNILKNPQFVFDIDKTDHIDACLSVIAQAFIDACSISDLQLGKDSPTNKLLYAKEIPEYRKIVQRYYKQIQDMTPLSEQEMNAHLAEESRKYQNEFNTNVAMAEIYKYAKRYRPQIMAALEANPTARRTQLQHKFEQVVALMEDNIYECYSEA

Tubastatin A = compound: CN1CCc2c(c3ccccc3n2Cc2ccc(C(=O)NO)cc2)C1 [Tubastatin A]
In short: as §1

[1] = compound: CNC(=O)C1=CC=CC=C1NC2=NC(=NC=C2Cl)NC3=C(C=C(C=C3)N4CCOCC4)OC
In short: as §1

filanesib = compound: CON(C)C(=O)N1N=C(c2cc(F)ccc2F)S[C@@]1(CCCN)c1ccccc1 [filanesib]
In short: as §1

alisertib = compound: COc1cc(Nc2ncc3c(n2)-c2ccc(Cl)cc2C(c2c(F)cccc2OC)=NC3)ccc1C(=O)O [alisertib]
In short: as §1

gefitinib = compound: COc1cc2ncnc(Nc3ccc(F)c(Cl)c3)c2cc1OCCCN1CCOCC1 [gefitinib]
In short: as §1

[2] = compound: COc1cccc2cc(-c3nc([C@H]4CC[C@H](C(=O)O)CC4)n4ncnc(N)c34)[nH]c12
In short: as §1

saracatinib = compound: CN1CCN(CCOc2cc(OC3CCOCC3)c3c(Nc4c(Cl)ccc5c4OCO5)ncnc3c2)CC1 [saracatinib]
In short: as §1

defactinib = compound: CNC(=O)c1ccc(Nc2ncc(C(F)(F)F)c(NCc3nccnc3N(C)S(C)(=O)=O)n2)cc1 [defactinib]
In short: as §1

[3] = compound: CNc1nc(-c2ccc3c(N)n[nH]c3c2)cc(N2C[C@@H](C(=O)NC3CCCCC3)CC[C@H]2C)n1
In short: as §1

[4] = compound: COC(=O)[C@H](CCSC)NC(=O)C1=C(C=C(C=C1)NC[C@H](CS)N)C2=CC=CC=C2
In short: as §1

idasanutlin = compound: COc1cc(C(=O)O)ccc1NC(=O)[C@@H]1N[C@@H](CC(C)(C)C)[C@](C#N)(c2ccc(Cl)cc2F)[C@H]1c1cccc(Cl)c1F [idasanutlin]
In short: as §1

[5] = compound: COc1cc2nc(-c3cc(F)ccc3O)nc(N[C@@H]3CNC[C@H]3C(C)(C)O)c2cc1OC
In short: as §1

lapatinib = compound: CS(=O)(=O)CCNCc1ccc(-c2ccc3ncnc(Nc4ccc(OCc5cccc(F)c5)c(Cl)c4)c3c2)o1 [lapatinib]
In short: as §1

[6] = compound: COC1=CC=C(C=C1)CN2C=CC3=C2C=C(C=C3)C(=O)NO
In short: as §1

rucaparib = compound: CNCc1ccc(-c2[nH]c3cc(F)cc4c3c2CCNC4=O)cc1 [rucaparib]
In short: as §1

encorafenib = compound: COC(=O)N[C@@H](C)CNc1nccc(-c2cn(C(C)C)nc2-c2cc(Cl)cc(NS(C)(=O)=O)c2F)n1 [encorafenib]
In short: as §1

pictilisib = compound: CS(=O)(=O)N1CCN(Cc2cc3nc(-c4cccc5[nH]ncc45)nc(N4CCOCC4)c3s2)CC1 [pictilisib]
In short: as §1

alvocidib = compound: CN1CC[C@H](c2c(O)cc(O)c3c(=O)cc(-c4ccccc4Cl)oc23)[C@H](O)C1 [alvocidib]
In short: as §1

zotarolimus = compound: CO[C@H]1C[C@@H]2CC[C@@H](C)[C@@](O)(O2)C(=O)C(=O)N2CCCC[C@H]2C(=O)O[C@H]([C@H](C)C[C@@H]2CC[C@H](n3cnnn3)[C@H](OC)C2)CC(=O)[C@H](C)/C=C(\C)[C@@H](O)[C@@H](OC)C(=O)[C@H](C)C[C@H](C)/C=C/C=C/C=C/1C [zotarolimus]
In short: as §1

Measured: log2 fold change

POT1 (UniProt Q9NUX5)
inactive: sotrastaurin -0.174 | Tubastatin A -0.008 | [1] 0.013 | filanesib 0.288 | alisertib 0.329 | gefitinib 0.063 | [2] 0.282

POLR1E isoform 1 (UniProt Q9GZS1)
inactive: saracatinib -0.054 | defactinib 0.107 | [3] 0.162 | [4] 0.204 | idasanutlin 0.156 | alisertib 0.036 | [5] -0.095 | [2] -0.206 | lapatinib 0.154

PLS3 (UniProt H7C4N2)
inactive: sotrastaurin 0.065 | [6] -0.281 | filanesib 0.051

PLOD2 isoform 2 (UniProt O00469)
inactive: saracatinib -0.024 | rucaparib -0.126 | [3] -0.101 | encorafenib -0.199 | [6] -0.466 | alisertib -0.072 | [5] 0.216 | [2] 0.045 | lapatinib -0.098

Taken from above (2 entries):
POLR1E isoform 1 (UniProt Q9GZS1)
inactive: saracatinib -0.054 | defactinib 0.107 | [3] 0.162 | [4] 0.204 | idasanutlin 0.156 | alisertib 0.036 | [5] -0.095 | [2] -0.206 | lapatinib 0.154

PLS3 (UniProt H7C4N2)
inactive: sotrastaurin 0.065 | [6] -0.281 | filanesib 0.051

Next part:

POLQ (UniProt O75417)
inactive: alisertib 0.052 | gefitinib 0.016 | [2] 0.206 | pictilisib 0.225

PPHLN1 isoform 3 (UniProt Q8NEY8)
inactive: alvocidib -0.059 | Tubastatin A 0.229 | zotarolimus 0.082

POLE (UniProt Q07864)
inactive: alvocidib -0.057 | zotarolimus 0 | pictilisib -0.042

PLXND1 (UniProt Q9Y4D7)
inactive: saracatinib 0.46 | defactinib 0.035 | rucaparib 0.109 | [3] -0.35 | encorafenib 0.256 | [4] 0.037 | [6] 0.292 | idasanutlin -0.168 | alisertib 0.002 | [2] 0.069

PLPPR3 isoform 3 (UniProt Q6T4P5)
inactive: alvocidib 0.154 | zotarolimus 0.134 | pictilisib 0.073

PLSCR3 (UniProt Q9NRY6)
inactive: alvocidib -0.087 | [1] -0.093 | zotarolimus 0.024 | idasanutlin 0.144 | gefitinib 0.086 | pictilisib 0.087
